Only a part is listed here, and it is no random draw. The calls were merged from several studies; some rest on single wells. Some of the results follow.
Experiments:
Conditions in all cases: stereoisomer not certain
[1] = target: T1, OR8D1 (Homo sapiens) (UniProt Q8WZ84)
T1 sequence (whole entry): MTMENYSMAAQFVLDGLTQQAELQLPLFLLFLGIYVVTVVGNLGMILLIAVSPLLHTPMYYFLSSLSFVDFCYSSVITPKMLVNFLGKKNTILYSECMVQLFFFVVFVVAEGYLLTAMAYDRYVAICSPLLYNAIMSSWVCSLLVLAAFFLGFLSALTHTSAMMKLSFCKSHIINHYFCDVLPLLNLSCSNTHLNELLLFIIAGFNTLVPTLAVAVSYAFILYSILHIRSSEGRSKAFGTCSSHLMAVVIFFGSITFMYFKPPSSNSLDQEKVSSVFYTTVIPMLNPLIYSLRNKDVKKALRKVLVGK
Method in brief: (§1)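 Each receptor–molecule pair is labelled responsive or non-responsive (inactive) according to whether the original authors judged the measured signal statistically different from baseline. The data were taken from the main text and supplementary material of published papers and checked for typos and inconsistencies. Assay methods differed by source, with transient luciferase assays in mammalian cell lines being common.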

[2] = target: T2, OR8D2 (Homo sapiens) (UniProt Q9GZM6)
T2 sequence (whole entry): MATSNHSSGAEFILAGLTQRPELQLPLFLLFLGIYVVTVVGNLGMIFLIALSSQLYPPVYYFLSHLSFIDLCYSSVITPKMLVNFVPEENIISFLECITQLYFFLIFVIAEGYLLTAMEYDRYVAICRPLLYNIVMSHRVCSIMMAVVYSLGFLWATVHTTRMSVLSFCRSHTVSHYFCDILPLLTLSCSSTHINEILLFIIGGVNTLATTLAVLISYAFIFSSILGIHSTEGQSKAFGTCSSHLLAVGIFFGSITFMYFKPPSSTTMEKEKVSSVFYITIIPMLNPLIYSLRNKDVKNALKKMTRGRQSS
Method in brief: as §1

[3] = test system: T3, OR8D4
T3 sequence (whole entry): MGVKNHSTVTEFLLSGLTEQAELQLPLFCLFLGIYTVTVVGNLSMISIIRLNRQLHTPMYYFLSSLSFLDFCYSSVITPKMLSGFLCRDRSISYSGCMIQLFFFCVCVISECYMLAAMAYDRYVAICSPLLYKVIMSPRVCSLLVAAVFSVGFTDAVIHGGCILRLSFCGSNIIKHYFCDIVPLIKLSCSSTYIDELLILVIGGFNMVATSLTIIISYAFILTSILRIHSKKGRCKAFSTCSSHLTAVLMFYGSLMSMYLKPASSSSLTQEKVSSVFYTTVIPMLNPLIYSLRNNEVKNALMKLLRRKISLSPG
Method in brief: as §1

[4] = target: T4, OR8G1 (Homo sapiens) (UniProt Q15617)
T4 sequence (whole entry): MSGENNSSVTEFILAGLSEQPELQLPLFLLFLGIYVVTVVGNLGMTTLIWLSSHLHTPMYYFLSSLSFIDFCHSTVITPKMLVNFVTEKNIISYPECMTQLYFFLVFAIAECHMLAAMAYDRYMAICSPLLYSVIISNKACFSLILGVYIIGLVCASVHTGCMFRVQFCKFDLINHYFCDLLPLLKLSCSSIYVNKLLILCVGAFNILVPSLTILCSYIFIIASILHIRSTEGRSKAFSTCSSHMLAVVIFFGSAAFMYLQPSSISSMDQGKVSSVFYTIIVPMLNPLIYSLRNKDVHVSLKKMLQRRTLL
Method in brief: as §1

[5] = target: T5, OR8G5 (Homo sapiens) (UniProt Q8NG78)
T5 sequence (whole entry): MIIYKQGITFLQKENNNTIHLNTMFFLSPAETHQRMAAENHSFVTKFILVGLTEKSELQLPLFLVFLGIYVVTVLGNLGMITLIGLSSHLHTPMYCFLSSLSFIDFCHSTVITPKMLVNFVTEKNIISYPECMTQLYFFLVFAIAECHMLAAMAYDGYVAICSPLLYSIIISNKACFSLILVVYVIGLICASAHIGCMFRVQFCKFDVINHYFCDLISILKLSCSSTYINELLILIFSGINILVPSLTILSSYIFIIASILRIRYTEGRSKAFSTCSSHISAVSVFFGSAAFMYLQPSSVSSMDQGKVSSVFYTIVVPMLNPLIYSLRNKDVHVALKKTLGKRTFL
Method in brief: as §1

[6] = test system: T6, OR8G5
T6 sequence (whole entry): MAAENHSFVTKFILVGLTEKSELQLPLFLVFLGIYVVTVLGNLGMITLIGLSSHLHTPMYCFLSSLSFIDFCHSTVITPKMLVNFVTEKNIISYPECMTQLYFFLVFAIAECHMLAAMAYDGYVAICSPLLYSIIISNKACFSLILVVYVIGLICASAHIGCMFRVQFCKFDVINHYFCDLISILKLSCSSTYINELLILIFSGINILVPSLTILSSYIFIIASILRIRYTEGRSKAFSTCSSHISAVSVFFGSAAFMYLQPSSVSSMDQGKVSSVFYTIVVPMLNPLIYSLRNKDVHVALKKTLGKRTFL
Method in brief: as §1

[7] = target: T7, OR8H1 (Homo sapiens) (UniProt Q8NGG4)
T7 sequence (whole entry): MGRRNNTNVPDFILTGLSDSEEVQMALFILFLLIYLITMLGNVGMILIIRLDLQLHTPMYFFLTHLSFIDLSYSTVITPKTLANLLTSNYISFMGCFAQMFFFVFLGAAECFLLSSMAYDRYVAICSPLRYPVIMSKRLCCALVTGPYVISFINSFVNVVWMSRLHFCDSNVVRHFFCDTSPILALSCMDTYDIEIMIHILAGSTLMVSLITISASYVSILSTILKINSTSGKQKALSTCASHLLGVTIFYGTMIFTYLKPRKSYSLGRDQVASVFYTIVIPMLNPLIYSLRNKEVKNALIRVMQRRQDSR
Method in brief: as §1

[8] = test system: T8, OR8H2
T8 sequence (whole entry): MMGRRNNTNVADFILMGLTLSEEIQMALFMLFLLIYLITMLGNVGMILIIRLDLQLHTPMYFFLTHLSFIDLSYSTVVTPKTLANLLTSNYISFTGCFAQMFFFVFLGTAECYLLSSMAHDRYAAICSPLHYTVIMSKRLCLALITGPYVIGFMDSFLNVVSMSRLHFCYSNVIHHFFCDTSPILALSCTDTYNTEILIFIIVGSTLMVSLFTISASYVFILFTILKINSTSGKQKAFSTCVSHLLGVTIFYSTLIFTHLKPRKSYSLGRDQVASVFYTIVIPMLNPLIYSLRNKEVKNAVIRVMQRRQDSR
Method in brief: as §1
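Further: active if original authors judged signal statistically different from baseline.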

Q: `CCCCCCCCC=O` was tested. Which “odorant receptor agonist call” value [1] did it give?
A: inactive

Q: What does the source list for `CC=Cc1ccc(O)c(OC)c1`?
A: odorant receptor agonist call [1]: inactive; odorant receptor agonist call [2]: inactive; odorant receptor agonist call [3]: inactive; odorant receptor agonist call [4]: inactive; odorant receptor agonist call [5]: inactive; odorant receptor agonist call [6]: inactive; odorant receptor agonist call [7]: inactive; odorant receptor agonist call [8]: inactive

Q: Which results are given for `CC12CCC(CC1)C(C)(C)O2`?
A: odorant receptor agonist call [1]: inactive; odorant receptor agonist call [2]: inactive; odorant receptor agonist call [3]: inactive; odorant receptor agonist call [4]: inactive; odorant receptor agonist call [5]: inactive; odorant receptor agonist call [6]: inactive; odorant receptor agonist call [7]: inactive; odorant receptor agonist call [8]: inactive

Q: `CCCCCCCCCC=O` was tested. Which “odorant receptor agonist call” value [1] did it give?
A: inactive

Q: What about the “odorant receptor agonist call” value [2] of the same molecule?
A: inactive

Q: And the “odorant receptor agonist call” value [3]?
A: inactive

Q: And the “odorant receptor agonist call” value [4]?
A: inactive

Q: What about the “odorant receptor agonist call” value [5] of the same molecule?
A: inactive

Q: What about the “odorant receptor agonist call” value [6] of the same molecule?
A: inactive

Q: What about the “odorant receptor agonist call” value [7] of the same molecule?
A: inactive

Q: What about the “odorant receptor agonist call” value [8] of the same molecule?
A: inactive

Q: Which “odorant receptor agonist call” value [1] does the source give for `COC(=O)c1ccccc1O` here?
A: inactive

Q: And the “odorant receptor agonist call” value [2]?
A: inactive

Q: What about the “odorant receptor agonist call” value [3] of the same molecule?
A: inactive

Q: What about the “odorant receptor agonist call” value [4] of the same molecule?
A: inactive

Q: And the “odorant receptor agonist call” value [5]?
A: inactive

Q: What about the “odorant receptor agonist call” value [6] of the same molecule?
A: inactive

Q: What about the “odorant receptor agonist call” value [7] of the same molecule?
A: inactive

Q: What about the “odorant receptor agonist call” value [8] of the same molecule?
A: inactive

Q: For `CCCCCCCC=CC=O`, which “odorant receptor agonist call” value [1] is on record?
A: inactive

Q: What about the “odorant receptor agonist call” value [2] of the same molecule?
A: inactive

Q: And the “odorant receptor agonist call” value [3]?
A: inactive

Q: What about the “odorant receptor agonist call” value [4] of the same molecule?
A: inactive

Q: What about the “odorant receptor agonist call” value [5] of the same molecule?
A: inactive

Q: And the “odorant receptor agonist call” value [6]?
A: inactive

Q: What about the “odorant receptor agonist call” value [7] of the same molecule?
A: inactive

Q: And the “odorant receptor agonist call” value [8]?
A: inactive

Q: Which “odorant receptor agonist call” value [1] does the source give for `C=C(C)C1CC=C(C)C(=O)C1` (stereo not drawn) here?
A: inactive

Q: How did the “odorant receptor agonist call” value [1] turn out when `CCCCCCOC(=O)CCC` was run?
A: inactive

Q: And the “odorant receptor agonist call” value [2]?
A: inactive

Q: What about the “odorant receptor agonist call” value [3] of the same molecule?
A: inactive

Q: And the “odorant receptor agonist call” value [4]?
A: inactive

Q: And the “odorant receptor agonist call” value [5]?
A: inactive

Q: What about the “odorant receptor agonist call” value [6] of the same molecule?
A: inactive

Q: What about the “odorant receptor agonist call” value [7] of the same molecule?
A: inactive

Q: What about the “odorant receptor agonist call” value [8] of the same molecule?
A: active

Q: Which results are given for `c1ccc(Oc2ccccc2)cc1`?
A: odorant receptor agonist call [1]: inactive; odorant receptor agonist call [2]: inactive; odorant receptor agonist call [3]: inactive; odorant receptor agonist call [4]: inactive; odorant receptor agonist call [5]: inactive; odorant receptor agonist call [6]: inactive; odorant receptor agonist call [7]: inactive; odorant receptor agonist call [8]: inactive

Q: `CCCCCCCC=O` was tested. Which “odorant receptor agonist call” value [1] did it give?
A: inactive

Q: What about the “odorant receptor agonist call” value [2] of the same molecule?
A: inactive

Q: What about the “odorant receptor agonist call” value [3] of the same molecule?
A: inactive

Q: What about the “odorant receptor agonist call” value [4] of the same molecule?
A: inactive

Q: What about the “odorant receptor agonist call” value [5] of the same molecule?
A: inactive

Q: What about the “odorant receptor agonist call” value [6] of the same molecule?
A: inactive

Q: And the “odorant receptor agonist call” value [7]?
A: inactive

Q: And the “odorant receptor agonist call” value [8]?
A: inactive

Q: `CCCCCCCOC(C)=O` was tested. Which “odorant receptor agonist call” value [1] did it give?
A: inactive

Q: And the “odorant receptor agonist call” value [2]?
A: inactive

Q: And the “odorant receptor agonist call” value [3]?
A: inactive

Q: And the “odorant receptor agonist call” value [4]?
A: inactive

Q: And the “odorant receptor agonist call” value [5]?
A: inactive

Q: And the “odorant receptor agonist call” value [6]?
A: inactive

Q: And the “odorant receptor agonist call” value [7]?
A: inactive

Q: What about the “odorant receptor agonist call” value [8] of the same molecule?
A: inactive

Q: What does the source list for `C=CCc1ccc(OC(C)=O)c(OC)c1`?
A: odorant receptor agonist call [1]: inactive; odorant receptor agonist call [2]: inactive; odorant receptor agonist call [3]: inactive; odorant receptor agonist call [4]: inactive; odorant receptor agonist call [5]: inactive; odorant receptor agonist call [6]: inactive; odorant receptor agonist call [7]: inactive; odorant receptor agonist call [8]: inactive

Q: For `CC(=O)c1ccccc1`, which “odorant receptor agonist call” value [1] is on record?
A: inactive

Q: And the “odorant receptor agonist call” value [2]?
A: inactive

Q: What about the “odorant receptor agonist call” value [3] of the same molecule?
A: inactive

Q: What about the “odorant receptor agonist call” value [4] of the same molecule?
A: inactive

Q: What about the “odorant receptor agonist call” value [5] of the same molecule?
A: inactive

Q: What about the “odorant receptor agonist call” value [6] of the same molecule?
A: inactive

Q: What about the “odorant receptor agonist call” value [7] of the same molecule?
A: inactive

Q: What about the “odorant receptor agonist call” value [8] of the same molecule?
A: inactive

Q: Which results are given for `CC(C)(C)c1ccc(CCC=O)cc1`?
A: odorant receptor agonist call [1]: inactive; odorant receptor agonist call [2]: inactive; odorant receptor agonist call [3]: inactive; odorant receptor agonist call [4]: inactive; odorant receptor agonist call [5]: inactive; odorant receptor agonist call [6]: inactive; odorant receptor agonist call [7]: inactive; odorant receptor agonist call [8]: inactive

— the M2OR odorant receptor database
